Measured values: patent publication US8580258
Where a chain is given by its changes, count along the chain named. No constants are given. Whether binding was seen depends on the method and setting. Some binding calls cover weakened binding; strength is not graded here. Tags and fused reporters may be left off the sequences shown.

Chains of the proteins cited; added tags and fusions are not shown. Residues count along the entry.
UniProt P32004, residues 20-1120: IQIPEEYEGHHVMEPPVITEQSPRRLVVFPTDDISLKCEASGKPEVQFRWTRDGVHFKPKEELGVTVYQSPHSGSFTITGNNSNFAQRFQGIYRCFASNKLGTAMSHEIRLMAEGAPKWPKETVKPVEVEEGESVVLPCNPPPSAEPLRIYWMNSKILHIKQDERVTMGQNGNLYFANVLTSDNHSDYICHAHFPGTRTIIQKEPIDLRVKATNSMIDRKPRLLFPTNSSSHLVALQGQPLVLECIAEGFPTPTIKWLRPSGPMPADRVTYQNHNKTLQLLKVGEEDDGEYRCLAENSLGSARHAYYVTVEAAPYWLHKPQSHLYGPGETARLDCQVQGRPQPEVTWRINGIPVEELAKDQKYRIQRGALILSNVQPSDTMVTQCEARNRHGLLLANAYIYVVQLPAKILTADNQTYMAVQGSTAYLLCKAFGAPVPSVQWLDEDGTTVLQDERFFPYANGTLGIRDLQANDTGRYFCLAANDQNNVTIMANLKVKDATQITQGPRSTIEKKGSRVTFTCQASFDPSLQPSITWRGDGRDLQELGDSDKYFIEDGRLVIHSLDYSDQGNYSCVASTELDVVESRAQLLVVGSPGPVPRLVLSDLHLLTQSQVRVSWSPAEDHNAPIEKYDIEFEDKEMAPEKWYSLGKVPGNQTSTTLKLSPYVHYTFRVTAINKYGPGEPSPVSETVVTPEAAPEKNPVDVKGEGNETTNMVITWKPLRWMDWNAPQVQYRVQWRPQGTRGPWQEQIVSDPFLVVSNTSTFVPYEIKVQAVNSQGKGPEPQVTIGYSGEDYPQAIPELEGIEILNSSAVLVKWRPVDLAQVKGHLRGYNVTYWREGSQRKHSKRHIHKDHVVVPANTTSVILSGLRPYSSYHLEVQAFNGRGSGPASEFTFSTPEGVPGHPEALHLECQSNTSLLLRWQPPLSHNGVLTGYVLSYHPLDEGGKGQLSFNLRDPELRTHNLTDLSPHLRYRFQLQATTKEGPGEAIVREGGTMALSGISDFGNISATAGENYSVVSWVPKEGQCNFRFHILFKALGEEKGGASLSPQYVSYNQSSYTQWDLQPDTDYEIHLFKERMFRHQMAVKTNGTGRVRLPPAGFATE

B1: L1-9.3 single chain antibody (murine L1-9.3 scFv fused to human c kappa constant region) (scFv)
scFv: DIQMTQTTSSLSAFLGDRVTISCRASQDISNYLNWYQQKPDGTVKLLIYYTSRLHSGVPSRFSGSGSGTDYSLTISNLEQEDFATYFCQQGNTLPWTFGGGTKLEIKRTSGPGDGGKGGPGKGPGGEGTKGTGPGGQVQLQQPGAELVKSGASVNLSCRASGYTFTRYWMLWVRQRPGHGLEWVGEINPRNDRTNYNEKFKTKATLTVDRSSSTAYMQLTSLTSEDSAVYFCALGGGYAMDYWGQGTSVTVSSGGAAAAPSVFIFPPSDEQLKSGTASVVCLLNNFYPREAKVQWKVDNALQSGNSQESVTEQDSKDSTYSLSSTLTLSKADYEKHKVYACEVTHQGLSSPVTKSFNRGESHHHHHH
B2: L1-9.3Hu single chain antibody (humanized L1-9.3Hu scFv fused to human c kappa constant region) (scFv)
scFv: DIQMTQSPSSLSASVGDRVTITCRASQDISNYLNWYQQKPGKAPKLLIYYTSRLHSGVPSRFSGSGSGTDYTFTISSLQPEDFATYFCQQGNTLPWTFGGGTKLEIKRTSGPGDGGKGGPGKGPGGEGTKGTGPGGEVQLVQSGGGLVQSGGSLRLSCRASGYTFTRYWMLWVRQRPGHGLEWVGEINPRNDRTNYNEKFKTRFTISVDRSKSTAYLQMDSLRAEDTAVYFCALGGGYAMDYWGQGTLVTVSSGGAAAAPSVFIFPPSDEQLKSGTASVVCLLNNFYPREAKVQWKVDNALQSGNSQESVTEQDSKDSTYSLSSTLTLSKADYEKHKVYACEVTHQGLSSPVTKSFNRGESHHHHHH
B3: L1-9.3Hu3 single chain antibody (humanized L1-9.3Hu3 scFv fused to human c kappa constant region) (scFv)
scFv: B2 scFv with F73L, H179K, G185A, S213N, A215L

target: recombinant L1-Fc fusion protein (human L1-Fc protein comprising the ectodomain of L1) (human) (UniProt P32004); assay: ELISA, L1-Fc coated, bacterial supernatant, anti-human kappa HRP

binding, binds:
B1
B2
B3

target: recombinant L1-Fc fusion protein (human L1-Fc protein comprising the ectodomain of L1) (human) (UniProt P32004); assay: ELISA, plate coated with L1-Fc at 5 µg/ml, bacterial supernatants of 8 clones, anti-human kappa HRP conjugate, TMB

binding, binds:
B1
B2
B3

target: recombinant L1-Fc fusion protein (human L1-Fc protein comprising the ectodomain of L1) (human) (UniProt P32004); assay: ELISA, L1-Fc coated at 5 ug/ml, bacterial supernatant, anti-human kappa HRP

binding, binds:
B1
B2
B3
